The results in this text go back to PMC6045631.

Results are given in words; binding and its absence hold for the method and conditions named. A result given as binding can be weak or reduced; the word gives no strength. For part of these data: Binding seen in cells or lysates may run through a third protein. For part of these data: Where a sequence is shown, tags or fusion partners need not be part of it.

Assay [1] concerns the target T1, Flag-tagged KIF20A, full length (mouse) (UniProt P97329).
T1 sequence: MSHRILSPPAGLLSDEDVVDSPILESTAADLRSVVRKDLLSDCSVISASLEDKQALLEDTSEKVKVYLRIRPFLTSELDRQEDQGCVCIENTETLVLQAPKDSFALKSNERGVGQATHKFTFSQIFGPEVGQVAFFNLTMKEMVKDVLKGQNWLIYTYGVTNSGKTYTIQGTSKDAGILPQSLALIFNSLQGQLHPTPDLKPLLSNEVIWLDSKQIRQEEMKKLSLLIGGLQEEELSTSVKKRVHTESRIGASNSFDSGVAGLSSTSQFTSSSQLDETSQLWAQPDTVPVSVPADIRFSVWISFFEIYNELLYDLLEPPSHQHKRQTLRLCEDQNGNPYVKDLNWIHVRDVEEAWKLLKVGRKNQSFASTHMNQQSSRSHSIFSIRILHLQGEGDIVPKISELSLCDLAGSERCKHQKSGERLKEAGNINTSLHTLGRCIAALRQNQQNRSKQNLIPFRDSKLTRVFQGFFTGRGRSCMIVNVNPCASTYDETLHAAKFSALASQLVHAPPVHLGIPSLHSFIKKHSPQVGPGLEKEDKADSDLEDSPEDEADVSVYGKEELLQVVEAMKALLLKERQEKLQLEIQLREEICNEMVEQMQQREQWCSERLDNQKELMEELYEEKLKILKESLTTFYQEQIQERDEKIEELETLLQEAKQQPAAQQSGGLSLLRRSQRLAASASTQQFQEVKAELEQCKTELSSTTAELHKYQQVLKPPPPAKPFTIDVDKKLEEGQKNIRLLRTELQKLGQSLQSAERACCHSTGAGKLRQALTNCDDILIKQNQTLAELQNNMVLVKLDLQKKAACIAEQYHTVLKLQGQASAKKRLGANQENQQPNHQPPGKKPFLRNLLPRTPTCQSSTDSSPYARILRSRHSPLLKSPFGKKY
Kind of assay: co-IP; plasmids co-transfected into HEK293 cells; lysis buffer 10 mM Tris-HCl pH 7.5, 150 mM NaCl, 1% NP40, 1 mM EDTA, 1 mM DTT; Flag or Myc antibody 1 µg/ml, magnetic protein G beads; western blot. On the technique in general: In western blotting, separated proteins are transferred to a membrane and probed.

Assay [2] concerns the target myc-tagged PDZ-RGS3, full length. The description is as above.
Assay [3] deals with full-length PDZ-RGS3 (two-hybrid bait). Kind of assay: two-hybrid; mouse E9.5/10.5 embryonic two-hybrid cDNA library screened with full-length PDZ-RGS3 and with the RGS domain alone as baits; 20 million yeast cells with each bait.

In the case of myc-tagged PDZ-RGS3, full length, the binding entry in assay [1] is “binds”.

B1: Flag-tagged KIF20A, full length (protein, UniProt P97329 1-887)
chain: T1 sequence
For B1, the binding entry in assay [2] is “binds”.

B2: KIF20A fragment, amino acids 625 to 818 (two-hybrid prey) (domain or fragment, UniProt P97329 625-818)
chain: LKILKESLTTFYQEQIQERDEKIEELETLLQEAKQQPAAQQSGGLSLLRRSQRLAASASTQQFQEVKAELEQCKTELSSTTAELHKYQQVLKPPPPAKPFTIDVDKKLEEGQKNIRLLRTELQKLGQSLQSAERACCHSTGAGKLRQALTNCDDILIKQNQTLAELQNNMVLVKLDLQKKAACIAEQYHTVLKL
Regarding B2, the binding entry in assay [3] is recorded as “binds”.
